PubChem BioAssay AID1259308 | NCATS | 2017

Assay: 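Genes whose loss raises luciferase production in HEK293 cells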 (primary screen)
Cells: human HEK293 embryonic kidney cells stably expressing firefly luciferase (HEK-CMV-Luc2-Hygro)
Knock-down reagent: single siRNA against human genes, 0.8 pmol siRNA per well
Time to read-out: 72 h
Read-out: 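Luciferase light (ONE-Glo) measured on one replicate plate set and viability (CellTiter-Glo) on the other, scaled to a negative control siRNA, with robust z-scores and luciferase per cell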
Reading the numbers: total luciferase, z-score and total luciferase, % of control: higher = more reporter protein produced; luciferase per cell, z-score: higher = more reporter output per viable cell
Rule for the call: 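Active when the median/MAD z-score for overall luciferase is greater than 3; a gene was taken forward for validation with new siRNAs if at least two of its three siRNAs passed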
Calls: active = raised luciferase; inactive = no rise
The deposit covers about 59,000 reagents; this is an unselected part. About 1,510 of them (2.6%) count as active. 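Calls use total luciferase alone and ignore viability, so some active siRNAs may act by altering cell number.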 The numbers tell different reagents against one gene apart. Further read-outs or replicates are left out here. Reagent sequences are not shown.

The opening 6 records as a preview:
gene	reagent	total luciferase, z-score	total luciferase, % of control	luciferase per cell, z-score	Outcome
CA2 (carbonic anhydrase 2)	1	-0.1	79.9	-0.136	inactive
CA2 (carbonic anhydrase 2)	2	0.162	85.1	0.32	inactive
CA2 (carbonic anhydrase 2)	3	-0.26	76.7	-0.76	inactive
KCNS2	1	0.748	96.8	0.241	inactive
KCNS2	2	-0.766	66.7	0.0543	inactive
KCNS2	3	2.07	123	0.837	inactive

Results, repeating the preview:
gene	reagent	total luciferase, z-score	total luciferase, % of control	luciferase per cell, z-score	Outcome
CA2 (carbonic anhydrase 2)	1	-0.1	79.9	-0.136	inactive
CA2 (carbonic anhydrase 2)	2	0.162	85.1	0.32	inactive
CA2 (carbonic anhydrase 2)	3	-0.26	76.7	-0.76	inactive
KCNS2	1	0.748	96.8	0.241	inactive
KCNS2	2	-0.766	66.7	0.0543	inactive
KCNS2	3	2.07	123	0.837	inactive
SDR16C5 (short chain dehydrogenase/reductase family 16C member 5)	1	-1.06	60.7	-1.94	inactive
SDR16C5 (short chain dehydrogenase/reductase family 16C member 5)	2	0.42	90.2	1.27	inactive
SDR16C5 (short chain dehydrogenase/reductase family 16C member 5)	3	-0.277	76.4	0.52	inactive
OR2C1 (olfactory receptor family 2 subfamily C member 1)	1	-0.75	67	-0.161	inactive
OR2C1 (olfactory receptor family 2 subfamily C member 1)	2	1.81	118	1.73	inactive
OR2C1 (olfactory receptor family 2 subfamily C member 1)	3	-0.768	66.6	0.132	inactive
CDC34 (cell division cycle 34, ubiquitin conjugating enzyme)	1	0.205	86	0.435	inactive
CDC34 (cell division cycle 34, ubiquitin conjugating enzyme)	2	0.628	94.4	0.512	inactive
CDC34 (cell division cycle 34, ubiquitin conjugating enzyme)	3	-2.41	33.9	-1.78	inactive
RPL37P23 (ribosomal protein L37 pseudogene 23)	1	-0.0233	81.4	0.839	inactive
RPL37P23 (ribosomal protein L37 pseudogene 23)	2	-1.09	60.2	-0.792	inactive
RPL37P23 (ribosomal protein L37 pseudogene 23)	3	1.88	119	2.14	inactive
IFI30 (IFI30 lysosomal thiol reductase)	1	-0.301	75.9	-0.242	inactive
IFI30 (IFI30 lysosomal thiol reductase)	2	-1.04	61.2	-1.01	inactive
IFI30 (IFI30 lysosomal thiol reductase)	3	0.102	83.9	0.00111	inactive
CLCNKB (chloride voltage-gated channel Kb)	1	-0.588	70.2	-0.884	inactive
CLCNKB (chloride voltage-gated channel Kb)	2	1.34	108	1.35	inactive
CLCNKB (chloride voltage-gated channel Kb)	3	-0.774	66.5	-0.768	inactive
ADARB1 (adenosine deaminase RNA specific B1)	1	1.14	105	1.21	inactive
ADARB1 (adenosine deaminase RNA specific B1)	2	-0.711	67.7	-1.13	inactive
ADARB1 (adenosine deaminase RNA specific B1)	3	-0.759	66.8	-1.09	inactive
HES2 (hes family bHLH transcription factor 2)	1	-3.47	12.8	-4.03	inactive
HES2 (hes family bHLH transcription factor 2)	2	0.565	93.1	1.06	inactive
HES2 (hes family bHLH transcription factor 2)	3	-0.0573	80.7	-0.0905	inactive
CKS1BP6 (CDC28 protein kinase regulatory subunit 1B pseudogene 6)	1	3.02	142	1.94	active
CKS1BP6 (CDC28 protein kinase regulatory subunit 1B pseudogene 6)	2	1.16	105	1.57	inactive
CKS1BP6 (CDC28 protein kinase regulatory subunit 1B pseudogene 6)	3	-2.73	27.6	-2.03	inactive
NUP210L (nucleoporin 210 like)	1	-0.721	67.5	-1.11	inactive
NUP210L (nucleoporin 210 like)	2	-0.28	76.3	-0.254	inactive
NUP210L (nucleoporin 210 like)	3	0.00191	81.9	-0.327	inactive
KIF2C (kinesin family member 2C)	1	-0.442	73.1	-0.114	inactive
KIF2C (kinesin family member 2C)	2	0.493	91.7	0.273	inactive
KIF2C (kinesin family member 2C)	3	0.502	91.9	0.0563	inactive
NIPAL3 (NIPA like domain containing 3)	1	0.731	96.4	1.21	inactive
NIPAL3 (NIPA like domain containing 3)	2	0.74	96.6	0.263	inactive
NIPAL3 (NIPA like domain containing 3)	3	-0.586	70.2	-0.612	inactive
APOBEC4	1	-0.964	62.7	-0.508	inactive
APOBEC4	2	1.37	109	1.48	inactive
APOBEC4	3	0.516	92.2	0.883	inactive
ARL9 (ARF like GTPase 9)	1	1.04	103	0.0941	inactive
ARL9 (ARF like GTPase 9)	2	-0.118	79.5	0.642	inactive
ARL9 (ARF like GTPase 9)	3	-0.014	81.6	-0.398	inactive
OSTC (oligosaccharyltransferase complex non-catalytic subunit)	1	0.00888	82.1	-0.456	inactive
OSTC (oligosaccharyltransferase complex non-catalytic subunit)	2	0.819	98.2	0.313	inactive
OSTC (oligosaccharyltransferase complex non-catalytic subunit)	3	0.123	84.3	0.406	inactive
SIGLEC8 (sialic acid binding Ig like lectin 8)	1	-1.17	58.7	-0.629	inactive
SIGLEC8 (sialic acid binding Ig like lectin 8)	2	-1.48	52.4	-1.01	inactive
SIGLEC8 (sialic acid binding Ig like lectin 8)	3	-0.568	70.6	0.251	inactive
DEFB131A (defensin beta 131A)	1	0.161	85.1	-0.214	inactive
DEFB131A (defensin beta 131A)	2	0.656	94.9	1.43	inactive
DEFB131A (defensin beta 131A)	3	-1.09	60.2	-1.06	inactive
KATNAL2 (katanin catalytic subunit A1 like 2)	1	-1.29	56.2	-1.81	inactive
KATNAL2 (katanin catalytic subunit A1 like 2)	2	-0.86	64.8	-1.57	inactive
KATNAL2 (katanin catalytic subunit A1 like 2)	3	2.05	123	2.72	inactive
LINC01346 (long independently transcribed non-coding RNA 1346)	1	0.642	94.7	-0.0619	inactive
LINC01346 (long independently transcribed non-coding RNA 1346)	2	0.91	100	2.2	inactive
LINC01346 (long independently transcribed non-coding RNA 1346)	3	-0.419	73.6	-0.188	inactive
WNK2 (WNK lysine deficient protein kinase 2)	1	0.759	97	0.615	inactive
WNK2 (WNK lysine deficient protein kinase 2)	2	1.87	119	1.74	inactive
WNK2 (WNK lysine deficient protein kinase 2)	3	-0.521	71.5	0.101	inactive
LILRA1 (leukocyte immunoglobulin like receptor A1)	1	0.0972	83.8	-0.37	inactive
LILRA1 (leukocyte immunoglobulin like receptor A1)	2	-0.0288	81.3	-0.387	inactive
LILRA1 (leukocyte immunoglobulin like receptor A1)	3	-0.224	77.4	-0.343	inactive
NR2C2 (nuclear receptor subfamily 2 group C member 2)	1	-1.06	60.8	-1.45	inactive
NR2C2 (nuclear receptor subfamily 2 group C member 2)	2	0.905	99.9	0.823	inactive
NR2C2 (nuclear receptor subfamily 2 group C member 2)	3	-0.829	65.4	-1.2	inactive
TAS2R16 (taste 2 receptor member 16)	1	1.76	117	2.46	inactive
TAS2R16 (taste 2 receptor member 16)	2	-0.617	69.6	-0.135	inactive
TAS2R16 (taste 2 receptor member 16)	3	-0.524	71.5	-0.375	inactive
